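Whole-cell growth test on Mycobacterium tuberculosis, read after 4 days in a medium based on cholesterol and the lipid DPPC; the read-out is not stated. Compounds at 50 µM. The record gives no direction; compounds that gave an IC50 in retests scored well above the rest, so higher reads as more growth inhibition. About 69,000 compounds were tested under these conditions; 0.54% (about 370) showed 50% or more at least once.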

Results are given as percent effect. The controls that fix the scale are not given in the record; negative values are as filed. Compounds were drawn at random from those tested, without regard to their results. Two or more numbers in one place are separate tests of the same structure; such repeats can differ widely.

| structure | percent effect |
|---|---|
| `Cc1nc(CN2CCN(C(=O)CCc3cccnc3)CC2)no1` | -3.728 |
| `CN(Cc1cscn1)C1CCCN(Cc2noc(C3CC3)n2)C1` (stereo unspecified) | -32.61 |
| `O=C(CN1CCN(c2ccccc2F)CC1)Nc1ccc(Cl)cn1` | 16.17 |
| `O=C(C1CCC1)N1CCCC(c2cccc(-n3ccnc3)n2)C1` (stereo unspecified) | 5.692 |
| `CC(C)CC(=O)NS(=O)(=O)c1ccc(C#N)cc1C(F)(F)F` | -5.204 |
| `Cc1cccc(-c2noc(CN3CC(n4cccn4)C3)n2)c1` | 14.79 |
| `CCN(CC(=O)NC1(C)CCS(=O)(=O)C1)Cc1ccc(OC)c(F)c1` (stereo unspecified) | 5.488 |
| `Cc1nn(CCc2nnc(NCC(C)C)s2)c(C)c1Br` | 14.74 |
| `O=C(Cn1cc(C(=O)O)ccc1=O)Nc1ccc(Cl)cc1F` | -1.805 |
| `[H][C@]12CCC[C@@]1(CO)CN(C(=O)c1cc(C)nc3ccc(CC)cc13)C2` | 15.18 |
| `COCC1CN(C(=O)Nc2cc(-n3cccc3)ccc2F)CCO1` (stereo unspecified) | -30.67 |
| `CCS(=O)(=O)N1CCC(Oc2ccc(C#N)cc2)CC1` | -27.77 |
| `Cl.c1csc(-c2noc(C3CCCNC3)n2)c1` (stereo unspecified) | 15.87 |
| `Cc1csc(C(=O)NCCn2nc(-n3cncn3)ccc2=O)c1` | 15.48 |
| `CCOc1cccc(C(C(=O)O)N(C)Cc2cc(C)no2)c1` (stereo unspecified) | -15.91 |
| `CC(=O)c1cc(CN2CCCCC2c2nc3cc(F)ccc3[nH]2)cs1` (stereo unspecified) | 20.85 and 13.23 |
| `CCc1cc(NCCN2CCNC2=O)n2nc(C)c(C)c2n1` | -13.59 |
| `CSc1ccc(-c2noc(CN(CC(C)C)CC(C)C)n2)cc1` | 17.13 |
| `Cc1ccc(OCc2nc(CNCC3CN(C)CCO3)cs2)cc1` (stereo unspecified) | 2.63 |
| `Cc1cccnc1CN(C)C(C(=O)O)c1ccc(-n2cccn2)cc1` (stereo unspecified) | 44.87 |
| `O=C(O)C(F)(F)F.[H][C@@]12CN(C(=O)c3ccoc3)C[C@]1([H])OCCN2C(C)C` | -15.85 |
| `CCCOC1CCCN(C(=O)c2cc(CN(CC)CC)c(CC)o2)C1` (stereo unspecified) | -5.416 |
| `COc1ccc(C2Nc3cc(Cl)ccc3C3=NCCN32)cc1CO` (stereo unspecified) | -10.14 |
| `Cc1nc(C)c(CN2CCOC(CNc3cccnn3)C2)s1` (stereo unspecified) | -1.842 |
| `CC(=O)C(C)CC(=O)N(Cc1cccc(C)c1)C(C)C` (stereo unspecified) | -10.08 |
| `CCc1noc(CN2CCCC2C(=O)OCc2ccccc2)n1` (stereo unspecified) | -7.414 |
| `c1cnn(-c2ccc(CN3CCCC(Cn4cncn4)C3)cc2)c1` (stereo unspecified) | 12.78 |
| `CC(C)c1nnc(NCc2cc3n(n2)CCNC3)s1` | -25.28 |
| `Cc1cnc(C(=O)N2CCCC3(CCN(c4cnn(C)c4)C3=O)C2)cn1` (stereo unspecified) | 17.63 |
| `Cc1nc(NS(=O)(=O)c2cc(Br)ccc2C)no1` | -17.53 |
| `CS(=O)(=O)NCc1cn2c(n1)CN(Cc1cccnc1)CC2.O=C(O)C(F)(F)F.O=C(O)C(F)(F)F` | -24.01 |
| `O=C(O)C(F)(F)F.O=C(O)C(F)(F)F.O=C1CC(c2ccncc2)C2(CCN(CC3CC3)CC2)N1` (stereo unspecified) | -28.55 |
| `COCC1(CNc2cc(C(C)C)nc(N)n2)CC1` | 0.3425 |
| `Cc1ccc(NC(=O)Cn2cc(I)cn2)cc1` | -0.5452 |
| `CS(=O)(=O)N1CCC(C(=O)NCCNc2ncccn2)CC1` | 12.21 |
| `[H][C@@]12CO[C@@H](CNS(C)(=O)=O)[C@]1([H])CCN(C(=O)c1cnccn1)C2` | -5.833 |
| `O=C(c1cnc(-c2cccnc2)nc1)N1CCSCC1` | -23.29 |
| `COC(=O)C(c1cc(F)ccc1F)N(C)C(=O)c1ccnc(C)n1` (stereo unspecified) | 5.341 |
| `CC(C)(C)c1noc(CN2CCN(C(=O)c3ccco3)CC2)n1` | 1.222 |
| `CSC(C)C(=O)N1CCC(Oc2cc(C)ccc2F)(C(=O)O)CC1` (stereo unspecified) | 7.978 and -4.206 |
| `CC(C)S(=O)(=O)NCc1cccnc1Oc1ccc(F)cc1F` | -3.002 |
| `CCc1nnc2n1CCN(C(=O)C(OC)c1ccccc1)C2` (stereo unspecified) | -3.031 |
| `CN(Cc1cc(-c2ccncc2)no1)Cc1nccn1C` | -6.425 |
| `Cc1nc(N2CCOc3ccc(CO)cc3C2)c2nc(C)oc2n1` | 0.5008 |
| `[H][C@@]12COC[C@]1(COCc1cccc(C)n1)CN(C(=O)c1ccsc1)C2` | 14.74 and -1.812 |
| `O=C(O)c1ccc(S(=O)(=O)Nc2ccc(Cl)c(F)c2)c(F)c1` | -9.353 |
| `NC(=O)C1CCN(C(=O)NC(Cc2ccccc2)C(F)(F)F)CC1` (stereo unspecified) | -0.8186 |
| `CCc1nnc(SCC(=O)Nc2cc(C(C)(C)C)nn2C)[nH]1` | 25.97 |
| `Cc1nc(C)n(CC2CCCN2CC(=O)Nc2cccnc2)n1` (stereo unspecified) | -12.62 |
| `Cc1nsc(NC(=O)NC2(CN3CCOCC3)CCCCC2)n1` | -0.96 |
| `CC(C)NC1CCc2c(ccc(=O)n2CCN2CCCC2=O)C1.O=C(O)C(F)(F)F` (stereo unspecified) | 8.133 |
| `CN1CC(=O)N(c2cccc(F)c2)CC12CCN(Cc1cncn1C)C2.O=C(O)C(F)(F)F.O=C(O)C(F)(F)F` (stereo unspecified) | -0.5621 and -12.18 |
| `COCCc1noc(CN2CCCc3cccc(OC)c32)n1` | 4.053 |
| `Cc1ccc(C(=O)N(Cc2cccnc2)C[C@@H]2CCC(=O)N2)s1` | -2.912 |
| `COCCN(C(=O)c1ccccn1)c1nc2c(s1)CCc1c-2cnn1C` | 14.53 |
| `Cc1ccoc1C(=O)N1CC[C@@]2(C[C@H](NS(C)(=O)=O)CCO2)C1` | -14.41 |
| `CS(=O)(=O)N1CCC(C(=O)Nc2nnc(C(F)(F)F)[nH]2)CC1` | 5.912 |
| `CN1CCC(Cc2noc(CCc3nc4ccccc4nc3O)n2)CC1` | 3.182 |
| `Cc1noc(C)c1CNCc1nn(-c2ccccc2)c2c1CCC2` | -10.17 |
| `NC(=O)c1cn[nH]c1C1CCCN1C(=O)c1ccccc1` (stereo unspecified) | 14.17 |
| `Fc1ccc(CN2CCC3(CC2)CCN(c2ncccn2)CC3)cc1.O=C(O)C(F)(F)F.O=C(O)C(F)(F)F` | -5.918 |
| `Cn1cc(N2CCC3(CCN(C(=O)[C@H]4CCCO4)C3)C2=O)cn1` (stereo partly specified) | -8.708 |
| `O=C(NC1CCC(N2C(=O)CCC2=O)CC1)c1c[nH]c2ccccc12` (stereo unspecified) | 3.905 |
| `[H][C@]12CC[C@]([H])(CN(Cc3ccccc3)C1)N(C(=O)CCCN(C)C)C2` | 3.983 |
| `Cc1cccnc1NCCNC(=O)c1cnc(-c2ccccn2)nc1O` | -20.78 |
| `CC(NC(=O)CSCC#N)c1cccc(Cl)c1` (stereo unspecified) | -3.728 |
| `O=C(CSc1ccc2c(c1)OCCO2)NS(=O)(=O)C1CCCCC1` | -0.8965 |
| `COc1ccnc(CNc2nc(C)nc(C)c2C)c1` | 12.55 |
| `O=S(=O)(NCC1CCN(CCN2CCOCC2)C1)c1ccccc1F` (stereo unspecified) | -15.61 |
| `CC(=O)N1CCCN(C(=O)NCCNc2cnccn2)CC1` | 11.06 |
| `CCc1noc(C(C)N2CCC(C)CC2)n1` (stereo unspecified) | -6.495 |
| `O=C1CCCCN1CCCC(=O)N1CCC2(CC1)[C@H](O)C[C@@H]2O` | 24.11 |
| `Cc1ccc(NC2CCCN(Cc3ccc(Cl)cc3)C2)nn1` (stereo unspecified) | 64.21 and 80.04 |
| `Cn1cc(CN2CCCC3(CCN3S(C)(=O)=O)C2)cn1` (stereo unspecified) | -24.1 |
| `O=C(O)C(F)(F)F.c1cnn(Cc2nnc3n2CCCN(CC2CCOCC2)C3)c1` | -18.03 |
| `CCn1cncc1C1CC(=O)Nc2c1c(C)nn2-c1ccc(C)cc1` (stereo unspecified) | -7.781 and 0.7997 |
| `CCn1nc(C)c2c1cnn2CCNS(=O)(=O)Cc1ccccc1` | -11.8 |
| `COCCN1CCC2(CC1)CC(NCc1ccc(C)s1)c1ccccc12.O=C(O)C(F)(F)F.O=C(O)C(F)(F)F` (stereo unspecified) | 5.104 |
| `CN(Cc1cc[nH]n1)C(=O)c1cn(Cc2ccccc2Cl)nn1` | -13.29 |
| `Cc1oncc1C(=O)N1CCC2(CCN(Cc3cccc(F)c3)C2=O)C1` (stereo unspecified) | 4.133 |
| `CCOC(=O)C1CCN(C(=O)CN2CCCC2c2ccccc2C)CC1` (stereo unspecified) | 2.364 |
| `CCc1nc2c(N3CCC4(CC3)CNC(=O)C4)ncnc2o1` | -13.97 |

Measurements from “University of Dundee, Small-Polar-MMV Screening Library” (2021), ChEMBL document CHEMBL3988442.